Results are given in words; binding and its absence hold for the method and conditions named. Binding seen in cells or lysates may run through a third protein. A yes stands for co-enrichment or nearness to the bait. Other partners may have been found.
Target: Flag-tagged DSS1 (pcDNA5-StFLAG-DSS1, inducible in HEK293 Flp-In T-REx cells) (human) (UniProt P60896)
Assay: affinity purification with mass spectrometry

Protein sequences, listed by entry. Tags and fused reporters are not part of them. Lines headed by an entry give the natural chain unless they say otherwise; changes in a name come on top.
UniProt P60896: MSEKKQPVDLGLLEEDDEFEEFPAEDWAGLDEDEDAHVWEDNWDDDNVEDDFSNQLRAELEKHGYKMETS
UniProt P67775: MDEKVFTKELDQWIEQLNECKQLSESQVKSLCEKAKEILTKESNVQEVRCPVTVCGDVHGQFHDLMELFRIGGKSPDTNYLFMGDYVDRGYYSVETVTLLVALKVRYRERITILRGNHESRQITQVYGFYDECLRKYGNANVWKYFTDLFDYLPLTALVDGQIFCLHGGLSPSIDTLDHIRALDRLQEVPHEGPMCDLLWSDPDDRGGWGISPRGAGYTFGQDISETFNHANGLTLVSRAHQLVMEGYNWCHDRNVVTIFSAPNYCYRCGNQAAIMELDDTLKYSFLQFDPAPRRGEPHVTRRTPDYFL

PP2A-C (phosphatase module subunit of INTAC) (from UniProt P67775)
binding: binds

— doi:10.1101/2024.02.25.581915
